Data reported in paper PMC1540706.
Results are given in words; binding and its absence hold for the method and conditions named. For some assays here: Binding calls can cover weak binding; strength is not graded here. For some assays here: Tags and fused reporters may be left off the sequences shown. For some assays here: Binding seen in cells or lysates may run through a third protein. Values belong to the binder of their own block, whether it stands above or below them.

Chains of the proteins cited; added tags and fusions are not shown. Lines headed by an entry give the natural chain unless they say otherwise; changes in a name come on top.
UniProt P63010: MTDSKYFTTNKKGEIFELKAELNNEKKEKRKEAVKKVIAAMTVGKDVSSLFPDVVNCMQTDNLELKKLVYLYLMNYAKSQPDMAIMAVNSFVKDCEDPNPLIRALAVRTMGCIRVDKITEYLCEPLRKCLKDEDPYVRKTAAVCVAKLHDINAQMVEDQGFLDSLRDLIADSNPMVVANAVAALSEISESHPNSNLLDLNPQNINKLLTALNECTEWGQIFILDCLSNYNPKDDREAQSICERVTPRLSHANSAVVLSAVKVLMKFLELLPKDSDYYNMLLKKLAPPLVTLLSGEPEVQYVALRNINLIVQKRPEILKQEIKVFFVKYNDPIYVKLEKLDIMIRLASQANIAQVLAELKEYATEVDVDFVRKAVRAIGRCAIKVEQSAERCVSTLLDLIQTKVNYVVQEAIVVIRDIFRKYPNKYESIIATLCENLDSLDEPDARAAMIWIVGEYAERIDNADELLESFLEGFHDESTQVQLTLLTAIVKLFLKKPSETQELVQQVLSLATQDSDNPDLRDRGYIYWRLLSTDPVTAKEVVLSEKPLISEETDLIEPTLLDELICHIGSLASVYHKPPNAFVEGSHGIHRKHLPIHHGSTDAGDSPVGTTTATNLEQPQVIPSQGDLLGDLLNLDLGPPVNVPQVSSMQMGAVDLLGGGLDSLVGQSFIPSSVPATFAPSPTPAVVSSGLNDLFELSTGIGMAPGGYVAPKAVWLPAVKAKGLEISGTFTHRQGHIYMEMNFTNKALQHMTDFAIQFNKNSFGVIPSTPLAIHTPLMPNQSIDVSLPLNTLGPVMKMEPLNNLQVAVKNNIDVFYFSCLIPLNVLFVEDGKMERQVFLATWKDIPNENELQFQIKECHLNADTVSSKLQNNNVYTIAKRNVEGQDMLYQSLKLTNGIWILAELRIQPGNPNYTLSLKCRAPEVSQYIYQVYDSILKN

Tests used:
[1] = molecular target: GST-mouse-α-appendage (α-earL695–983) (mouse); experiment: SPR; BIA2000; GST-α or GST-β2 amine-coupled to a CM5 chip; 6× His hEps15-MD injected at 300 nM; 20 mM HEPES, 150 mM NaCl, pH 7.4; dissociation over 7,000 s at 20 μl/min; GST surface subtracted; both purified
[2] = molecular target: GST-human-β2-appendage (700–937) mutated at K719 (human) (UniProt P63010); experiment: pull-down; GST fusion protein on beads in (rat) brain extract; bound proteins detected by Western blotting (Figures 2B, 5E, 6A-D); only the target purified
[3] = molecular target: human β2-appendage (700–937), top site mutant used for ITC (human) (UniProt P63010); experiment: ITC; VP-ITC; 100 mM HEPES, 50 mM NaCl, 2 mM DTT pH 7.4 at 10 °C; peptides or proteins injected from the syringe into the cell; both purified
[4] = molecular target: human β2-appendage (700–937), side site mutant used for ITC (human) (UniProt P63010); experiment: as above

- binding [1]: binds
B1: 6× His human Eps15-MD (530–791) (domain or fragment, UniProt P42566 530-791)
chain: STSSSETANLNEHVEGQSNLESEPIHQESPARSSPELLPSGVTDENEVTTAVTEKVCSELDNNRHSKEEDPFNVDSSSLTGPVADTNLDFFQSDPFVGSDPFKDDPFGKIDPFGGDPFKGSDPFASDCFFRQSTDPFATSSTDPFSAANNSSITSVETLKHNDPFAPGGTVVAASDSATDPFASVFGNESFGGGFADFSTLSKVNNEDPFRSATSSSVSNVVITKNVFEETSVKSEDEPPALPPKIGTPTRPCPLPPGKRSI

- binding [2]: binds
B2: AP180 (brain extract) (protein, UniProt Q05140 1-915)
chain: MSGQTLTDRIAAAQYSVTGSAVARAVCKATTHEVMGPKKKHLDYLIQATNETNVNIPQMADTLFERATNSSWVVVFKALVTTHHLMVHGNERFIQYLASRNTLFNLSNFLDKSGSHGYDMSTFIRRYSRYLNEKAFSYRQMAFDFARVKKGADGVMRTMVPEKLLKSMPILQGQIDALLEFDVHPNELTNGVINAAFMLLFKDLIKLFACYNDGVINLLEKFFEMKKGQCKDALEIYKRFLTRMTRVSEFLKVADEVGIDKGDIPDLTQAPSSLMETLEQHLNTLEGKKPGNNEGSGAPSPLSKSSPATTVTSPNSTPAKTIDTSPPVDIFATASAAAPVSSAKPSSDLLDLQPDFSGARAGAAAPVPPPTGGATAWGDLLGEDSLAALSSVPSEAPISDPFAPEPSPPTTTTEPASASASATTAVTAATTEVDLFGDAFAASPGEAPAASEGATAPATPAPVAAALDACSGNDPFAPSEGSAEAAPELDLFAMKPPETSAPVVTPTASTAPPVPATAPSPAPTAVAATAATTTAAAAATTTATTSAAAATTAAAPPALDIFGDLFDSAPEVAAASKPDVAPSIDLFGTDAFSSPPRGASPVPESSLTADLLSGSGFHCAEDDRHVPLFFTAVDAFAAPSPASTASPAKAESSGVIDLFGDAFGSSASETQPAPQAVSSSSASADLLAGFGGSFMAPSTTPVTPAQNNLLQPNFEAAFGTTPSTSSSSSFDPSGDLLMPTMAPSGQPAPVSMVPPSPAMSASKGLGSDLDSSLASLVGNLGISGTTSKKGDLQWNAGEKKLTGGANWQPKVTPATWSAGVPPQGTVPPTSSVPPGAGAPSVGQPGAGYGMPPAGTGMTMMPQQPVMFAQPMMRPPFGAAAVPGTQLSPSPTPATQSPKKPPAKDPLADLNIKDFL

- binding [2]: binds
B3: amphiphysin (brain extract) (protein, UniProt O08838 1-683)
chain: MADIKTGIFAKNVQKRLNRAQEKVLQKLGKADETKDEQFEEYVQNFKRQEAEGTRLQRELRGYLAAIKGMQEASMKLTESLHEVYEPDWYGREDVKMVGEKCDVLWEDFHQKLVDGSLLTLDTYLGQFPDIKNRIAKRSRKLVDYDSARHHLEALQSSKRKDESRISKAEEEFQKAQKVFEEFNVDLQEELPSLWSRRVGFYVNTFKNVSSLEAKFHKEIAVLCHKLYEVMTKLGDQHADKAFSIQGAPSDSGPLRIAKTPSPPEEASPLPSPTASPNHTLAPASPAPVRPRSPSQTRKGPPVPPLPKVTPTKELQQENIINFFEDNFVPEINVTTPSQNEVLEVKKEETLLDLDFDPFKPDVTPAGSAAATHSPMSQTLPWDLWTTSTDLVQPASGGSFNDFTQPQDTSLFTMQTDQNMAETEQALPTEPQAEEPPTTAAAPTAGLDLGLEMEEPKEEAAIPPGTDAGETVGTEGSTGEEAEAEKAALPAGEGESPEGAKIDVESTELASSESPQAAELEAGAPQEKVIPSVVIEPASNHEGEEHQETTTGTETREATEDVAPQGPAGEKQELATEPTPLDSQAATPAPAGAVDASLSAGDAAQELPPGFLYKVETLHDFEAANSDELTLQRGDVVLVVPSDSEADQDAGWLVGVKESDWLQYRDLATYKGLFPENFTRHLE

- binding [3]: no binding
- binding [4]: binds
Binder: DDDIVFEDFARQRLKGMKDD [β-arrestin P-long peptide]
